No constants are given. Whether binding was seen depends on the method and setting. Some results given as binding are weak or reduced against the parent protein; the word gives no strength.
Columns and labels:
BSA (bovine) = BSA (bovine) (UniProt P02769); experiment: ELISA; solid-phase binding assay; Tie-2/Fc (4.0 ug/ml), Ang-1 (200 ng/ml), tropoelastin, fibronectin or BSA (10 ug/ml each) coated on 96-well plates in 4 mM CaCl2 in TBS; 1:2 serial dilutions of soluble Fibulin-5 in 2% non-fat milk in TBS, 1 hr, room temperature; detected with Fibulin-5 antibody; both purified
fibronectin = fibronectin (UniProt P07589); experiment: as above
[1] = biological target: recombinant human Ang-1 (angiopoietin-1) (human) (UniProt Q15389); experiment: as above
[2] = biological target: T1, recombinant human Tie-2/Fc chimera (human, UniProt Q02763 23-748); experiment: as above
T1 construct: TIE-2 receptor tyrosine kinase, human, part fused to Fc in R&D Systems Cat. #313-TI-100; source: bought: R&D Systems

Amino acid sequences for entries named in this document (tags omitted). A change or cut given only in a name is not applied to a line headed by its entry. Residues count along the entry.
UniProt P02769, residues 25-607: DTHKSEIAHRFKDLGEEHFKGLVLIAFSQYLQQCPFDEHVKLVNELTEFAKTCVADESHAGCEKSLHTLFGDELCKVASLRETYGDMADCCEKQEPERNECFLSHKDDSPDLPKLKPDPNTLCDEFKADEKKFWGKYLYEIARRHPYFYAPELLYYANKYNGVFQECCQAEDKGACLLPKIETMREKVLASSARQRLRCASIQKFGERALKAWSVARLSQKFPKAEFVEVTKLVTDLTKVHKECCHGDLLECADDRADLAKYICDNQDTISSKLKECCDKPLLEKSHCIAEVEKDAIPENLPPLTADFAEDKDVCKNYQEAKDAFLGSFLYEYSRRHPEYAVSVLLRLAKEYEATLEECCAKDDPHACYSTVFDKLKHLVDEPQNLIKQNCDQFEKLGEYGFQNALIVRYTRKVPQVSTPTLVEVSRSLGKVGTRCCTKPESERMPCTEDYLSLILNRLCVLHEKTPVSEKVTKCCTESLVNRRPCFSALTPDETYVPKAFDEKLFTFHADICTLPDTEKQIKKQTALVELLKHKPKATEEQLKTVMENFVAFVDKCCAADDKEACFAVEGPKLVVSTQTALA
UniProt P07589, residues 33-2478: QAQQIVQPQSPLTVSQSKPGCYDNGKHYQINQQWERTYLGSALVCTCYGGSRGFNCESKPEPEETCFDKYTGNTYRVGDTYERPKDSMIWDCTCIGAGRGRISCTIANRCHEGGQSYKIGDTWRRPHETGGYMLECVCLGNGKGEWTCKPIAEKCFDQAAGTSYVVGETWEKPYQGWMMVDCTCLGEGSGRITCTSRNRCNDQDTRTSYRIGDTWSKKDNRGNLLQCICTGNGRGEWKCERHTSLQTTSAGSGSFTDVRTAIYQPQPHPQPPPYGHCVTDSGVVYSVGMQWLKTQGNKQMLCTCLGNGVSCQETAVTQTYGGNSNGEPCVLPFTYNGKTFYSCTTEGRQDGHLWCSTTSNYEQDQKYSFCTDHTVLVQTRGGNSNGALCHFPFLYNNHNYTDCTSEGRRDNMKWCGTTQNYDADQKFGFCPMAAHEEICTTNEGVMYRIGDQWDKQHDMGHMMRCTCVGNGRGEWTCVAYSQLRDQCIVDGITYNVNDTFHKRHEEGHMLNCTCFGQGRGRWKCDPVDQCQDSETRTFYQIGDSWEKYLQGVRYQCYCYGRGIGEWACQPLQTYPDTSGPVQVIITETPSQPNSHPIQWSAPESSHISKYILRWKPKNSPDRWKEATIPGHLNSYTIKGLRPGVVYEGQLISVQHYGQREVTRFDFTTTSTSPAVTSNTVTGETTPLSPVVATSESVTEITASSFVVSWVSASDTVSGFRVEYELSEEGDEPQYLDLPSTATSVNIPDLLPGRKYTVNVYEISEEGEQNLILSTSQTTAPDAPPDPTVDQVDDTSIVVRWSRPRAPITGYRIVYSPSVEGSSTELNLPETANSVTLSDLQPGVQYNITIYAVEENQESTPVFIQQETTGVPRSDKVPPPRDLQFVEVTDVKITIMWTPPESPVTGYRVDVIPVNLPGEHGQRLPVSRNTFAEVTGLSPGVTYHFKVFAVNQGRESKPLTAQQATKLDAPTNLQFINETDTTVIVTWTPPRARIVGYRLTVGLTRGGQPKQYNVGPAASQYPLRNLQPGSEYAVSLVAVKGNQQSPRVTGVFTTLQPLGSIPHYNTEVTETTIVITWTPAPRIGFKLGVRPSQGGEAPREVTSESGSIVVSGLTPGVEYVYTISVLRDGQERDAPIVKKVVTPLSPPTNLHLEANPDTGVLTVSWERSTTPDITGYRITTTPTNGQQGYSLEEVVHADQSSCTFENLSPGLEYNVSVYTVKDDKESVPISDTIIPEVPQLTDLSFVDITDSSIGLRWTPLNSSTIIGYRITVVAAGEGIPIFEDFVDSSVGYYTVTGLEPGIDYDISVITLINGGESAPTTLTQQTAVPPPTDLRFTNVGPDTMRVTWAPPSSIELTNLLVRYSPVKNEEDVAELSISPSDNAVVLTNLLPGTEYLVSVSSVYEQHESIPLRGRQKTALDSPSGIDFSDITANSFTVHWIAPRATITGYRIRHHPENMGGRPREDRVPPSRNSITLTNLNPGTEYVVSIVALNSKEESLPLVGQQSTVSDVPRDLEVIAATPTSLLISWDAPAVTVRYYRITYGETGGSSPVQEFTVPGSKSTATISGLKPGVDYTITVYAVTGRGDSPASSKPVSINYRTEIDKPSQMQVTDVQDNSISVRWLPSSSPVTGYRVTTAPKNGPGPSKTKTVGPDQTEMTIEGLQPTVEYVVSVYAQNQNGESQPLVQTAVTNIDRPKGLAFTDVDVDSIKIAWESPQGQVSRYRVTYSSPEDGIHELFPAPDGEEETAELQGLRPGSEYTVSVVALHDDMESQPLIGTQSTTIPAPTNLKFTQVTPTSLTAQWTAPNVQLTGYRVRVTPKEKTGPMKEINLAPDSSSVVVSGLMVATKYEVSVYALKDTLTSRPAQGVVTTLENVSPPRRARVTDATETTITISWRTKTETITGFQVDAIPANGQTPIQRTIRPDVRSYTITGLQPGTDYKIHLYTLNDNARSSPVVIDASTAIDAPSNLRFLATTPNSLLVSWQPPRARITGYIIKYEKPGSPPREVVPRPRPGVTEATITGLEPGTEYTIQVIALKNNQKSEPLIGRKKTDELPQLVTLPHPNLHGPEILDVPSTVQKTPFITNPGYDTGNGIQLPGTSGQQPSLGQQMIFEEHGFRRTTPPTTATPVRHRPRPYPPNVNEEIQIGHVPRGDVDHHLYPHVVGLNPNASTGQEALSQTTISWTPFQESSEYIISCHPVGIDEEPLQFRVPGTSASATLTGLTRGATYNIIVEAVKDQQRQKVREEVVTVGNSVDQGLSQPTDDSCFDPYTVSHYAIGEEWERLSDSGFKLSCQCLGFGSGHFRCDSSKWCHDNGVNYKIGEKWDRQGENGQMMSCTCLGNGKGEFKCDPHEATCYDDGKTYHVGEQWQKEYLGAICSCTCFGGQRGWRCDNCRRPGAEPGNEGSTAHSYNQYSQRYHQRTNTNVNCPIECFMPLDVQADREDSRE
UniProt Q02763, residues 23-748: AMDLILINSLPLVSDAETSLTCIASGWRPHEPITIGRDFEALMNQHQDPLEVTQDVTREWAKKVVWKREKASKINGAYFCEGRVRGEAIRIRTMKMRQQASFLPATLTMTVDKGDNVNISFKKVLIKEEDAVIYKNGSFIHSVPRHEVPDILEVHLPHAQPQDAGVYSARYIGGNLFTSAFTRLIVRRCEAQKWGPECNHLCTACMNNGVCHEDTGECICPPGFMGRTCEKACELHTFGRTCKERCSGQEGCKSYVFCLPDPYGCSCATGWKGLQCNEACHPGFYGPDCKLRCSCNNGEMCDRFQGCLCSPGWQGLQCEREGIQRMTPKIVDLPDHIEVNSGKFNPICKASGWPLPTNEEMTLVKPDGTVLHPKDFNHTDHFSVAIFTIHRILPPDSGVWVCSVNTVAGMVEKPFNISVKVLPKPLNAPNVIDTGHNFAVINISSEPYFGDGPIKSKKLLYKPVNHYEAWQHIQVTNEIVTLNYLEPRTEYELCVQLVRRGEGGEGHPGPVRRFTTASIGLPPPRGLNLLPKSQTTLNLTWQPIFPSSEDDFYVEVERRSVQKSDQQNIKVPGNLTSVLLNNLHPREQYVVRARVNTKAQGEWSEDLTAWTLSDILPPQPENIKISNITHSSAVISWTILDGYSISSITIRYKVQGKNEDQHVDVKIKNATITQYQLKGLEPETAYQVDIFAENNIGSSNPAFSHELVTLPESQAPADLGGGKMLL
UniProt Q9WVH8, residues 24-448: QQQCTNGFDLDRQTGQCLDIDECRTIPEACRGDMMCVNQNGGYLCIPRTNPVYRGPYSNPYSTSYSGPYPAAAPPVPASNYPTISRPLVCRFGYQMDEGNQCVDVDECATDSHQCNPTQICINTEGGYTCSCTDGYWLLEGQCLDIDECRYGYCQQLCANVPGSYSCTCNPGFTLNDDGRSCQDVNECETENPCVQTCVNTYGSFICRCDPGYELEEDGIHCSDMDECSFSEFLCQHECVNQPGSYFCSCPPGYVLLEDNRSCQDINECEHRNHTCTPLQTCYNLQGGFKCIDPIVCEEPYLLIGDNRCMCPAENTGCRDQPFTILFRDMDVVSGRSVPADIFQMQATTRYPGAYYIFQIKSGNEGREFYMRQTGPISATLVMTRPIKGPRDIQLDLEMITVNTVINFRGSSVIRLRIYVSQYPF

[3] = biological target: recombinant full-length (wild-type) rat Fibulin-5 (rat) (UniProt Q9WVH8); experiment: ELISA; solid-phase binding assay; TIE-2/Fc (4.0 ug/ml) or Fibulin-5 (20 ug/ml) coated on 96-well plates; 1:2 serial dilutions of soluble Ang-1 in 2% non-fat milk in TBS, 1 hr, room temperature; detected with Ang-1 antibody; both purified

binding (BSA (bovine)) | binding (fibronectin) | binding [1] | binding [2] | binding [3] | Molecule
no binding | binds | no binding | no binding |  | recombinant full-length (wild-type) rat Fibulin-5 (from UniProt Q9WVH8 24-448)
 |  |  |  | no binding | recombinant human Ang-1 (angiopoietin-1) (ligand, UniProt Q15389 16-498, looked up, angiopoietin-1, human, recombinant, R&D Systems Cat. #923-AN/CF; The introduction calls angiopoietins oligomeric glycoproteins; source: bought: R&D Systems) HIGCSNQRRSPENSGRRYNRIQHGQCAYTFILPEHDGNCRESTTDQYNTNALQRDAPHVEPDFSSQKLQHLEHVMENYTQWLQKLENYIVENMKSEMAQIQQNAVQNHTATMLEIGTSLLSQTAEQTRKLTDVETQVLNQTSRLEIQLLENSLSTYKLEKQLLQQTNEILKIHEKNSLLEHKILEMEGKHKEELDTLKEEKENLQGLVTRQTYIIQELEKQLNRATTNNSVLQKQQLELMDTVHNLVNLCTKEGVLLKGGKREEEKPFRDCADVYQAGFNKSGIYTIYINNMPEPKKVFCNMDVNGGGWTVIQHREDGSLDFQRGWKEYKMGFGNPSGEYWLGNEFIFAITSQRQYMLRIELMDWEGNRAYSQYDRFHIGNEKQNYRLYLKGHTGTAGKQSSLILHGADFSTKDADNDNCMCKCALMLTGGWWFDACGPSNLNGMFYTAGQNHGKLNGIKWHYFKGPSYSLRSTTMMIRPLDF

From article PMC4909301, “Fibulin-5 Regulates Angiopoietin-1/Tie-2 Receptor Signaling in Endothelial Cells” (PLoS ONE, 2016)
